Results published in PubChem BioAssay AID1347075 (National Center for Advancing Translational Sciences (NCATS), 2019).
About 5,500 (1.4%) of roughly 400,000 compounds were called active. This list was built around the results that the source calls inconclusive (neither active nor inactive); the mix of calls is not that of the screen. Calls come from the whole dose curve; as a rule, active = well fitted cell-killing curve with a large enough effect; inconclusive = small, poorly fitted or top-dose-only effect, or effect the other way; inactive = flat fitted curve, though single readings scatter. A potency beside an inconclusive call is a rough fit, not a confirmed value.

test: qHTS assay for MDR1-selective chemotherapeutics: Primary screen using the parental adenocarcinoma cell KB-3-1; settings: KB-3-1 viability, CellTiter-Glo ATP luminescence, 72 h; activity change, negative = cytotoxic: at 46.1 µM (top of the series); note: nearly all actives have a fitted effect of over 60% in size
Procedure, shortened: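 Multi-concentration cytotoxicity screen in KB-3-1 cells grown in DMEM lacking phenol red with 10% FBS. After 72 h at 37 °C with compound, ATP-dependent luminescence was recorded.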
% is set by controls: 0 for no effect and ±100 for the full control effect; potency is the fitted concentration of half-maximal effect.

Row | SMILES | Potency | activity change, negative = cytotoxic
1 | O=C(O)c1ccc(N=Nc2c(O)[nH]c3ccccc23)cc1 | inconclusive: 16.4 µM [cytotoxic, partial curve] | –
2 | CCCN1C(=O)/C(=C/c2c(N3CCNC(=O)C3CC(=O)OCC)nc3c(C)cccn3c2=O)SC1=S (stereo unspecified) | inconclusive: 20.6 µM [cytotoxic, single point] | –
3 | O=C(Nc1ccc(S(=O)(=O)NC2=NCCCCC2)cc1)c1ccc(Cl)cc1Cl | – | inactive: -23.1%
4 | CCOc1ccc2nc(NC(=O)c3ccccn3)sc2c1 | inconclusive: 29.1 µM [cytotoxic, single point] | –
5 | Nc1nc(N)c2c(Oc3ccc(F)cc3)cccc2n1 | inconclusive: 25.9 µM [cytotoxic, partial curve, poor fit] | –
6 | Nc1nc(Nc2ccccc2F)nc(N2CCCC2)c1[N+](=O)[O-] | inconclusive: 23.1 µM [cytotoxic, single point] | –
7 | CC(C)(C)OC(=O)NCc1ccc(NC(=O)c2nc[nH]c2C(=O)NCCCCNC(=O)c2[nH]cnc2C(=O)Nc2ccc(CNC(=O)OC(C)(C)C)cc2)cc1 | inconclusive: 7.31 µM [cytotoxic, partial curve, poor fit] | –
8 | COC(=O)c1[nH]c2ccc(C)cc2c1NC(=O)C(C)N1CCN(C2CCCCC2)CC1 (stereo unspecified) | – | inactive: -1.1%
9 | COc1ccc(Cl)cc1NC(=O)Cn1nnc(C(=O)NCc2cccs2)c1N | active: 7.31 µM | –
10 | COc1ccc2c(CNCc3ccco3)c(C(=O)O)n(Cc3ccccc3)c2c1 | inconclusive: 23.1 µM [cytotoxic, single point] | –
11 | COc1ccc(/C=C2/SC(=S)N(CCCC(=O)Nc3ccc(O)cc3)C2=O)cc1OC | inconclusive: 20.6 µM [cytotoxic, single point] | –
12 | Cc1c([N+](=O)[O-])cc(N2C(=O)C=CC2=O)cc1[N+](=O)[O-] | – | inactive: 17.7%
13 | COc1ccc(-c2cnc3c(NC(C)=O)cc(-c4ccccc4CN(C)C)cn23)cc1OC | – | inactive: -0.0965%
14 | COc1cccc(C(C)(O)c2nc(-c3ccc(Cl)cc3)cs2)c1 (stereo unspecified) | inconclusive: 18.4 µM [cytotoxic, single point] | –
15 | COc1ccc(/C=C2\CCC(C3CCCC3)C2=O)cc1 (stereo unspecified) | – | inactive: 6.02%
16 | CCC1CSC(Nc2ccc(C(=O)/C=C/c3cccc(C)c3)cc2)=N1 (stereo unspecified) | inconclusive: 20.6 µM [cytotoxic, single point] | –
17 | C[C@@H]1CN([C@@H](C)CO)C(=O)CCCn2nncc2CO[C@H]1CN(C)S(=O)(=O)c1cn(C)cn1 | inconclusive: 25.9 µM [rising, single point] | –
18 | Cc1ccc2cc(/C=N/Nc3nc4ccccc4[nH]3)c(Cl)nc2c1 | inconclusive: 20.6 µM [cytotoxic, partial curve] | –
19 | CCOc1[nH]n(-c2ccc(Cl)cc2)c(=O)c1C=Nc1ccc(O)cc1 | active: 18.4 µM | –
20 | CC[C@@]12C(=O)N(c3cccc(F)c3)C(=O)N1[C@H](c1ccc(Cl)cc1)[C@@H]1C(=O)N(C3CCCCC3)C(=O)[C@@H]12 | – | inactive: -21.8%
21 | CCc1ccc(-n2c(=O)c3ccc(C(=O)NCCc4ccccc4)cc3n(Cc3ccccc3C#N)c2=O)cc1 | – | inactive: 22.3%
22 | Cc1ccc(C2c3c(-c4ccccc4O)n[nH]c3C(=O)N2Cc2ccncc2)cc1 (stereo unspecified) | active: 8.2 µM | –

Row | SMILES | Potency | activity change, negative = cytotoxic
23 | Cc1ccc(NC(=O)c2ccc3c(c2)NC(=O)c2ccccc2S3)cc1 | active: 6.51 µM | –
24 | N#CC1=C(N)C(C#N)(C#N)C(c2ccncc2)C2CN(C(=O)OCc3ccccc3)CC=C12 (stereo unspecified) | inconclusive: 16.4 µM [cytotoxic, partial curve] | –
25 | O=c1c(C(c2ccccc2)c2c(O)nc3n(c2=O)CCS3)c(O)nc2n1CCS2 | – | inactive: 5.76%
26 | Cc1cccc(Nc2nc(N)nc(CCl)n2)c1C | inconclusive: 29.1 µM [cytotoxic, single point] | –
27 | O=c1[nH]c2cc3c(cc2cc1C(c1nnnn1Cc1ccccc1)N1CCCCCC1)OCCO3 (stereo unspecified) | inconclusive: 18.4 µM [cytotoxic, single point] | –
28 | O=C(Cn1c(COc2ccccc2)nc2ccccc21)Nc1cc(Cl)ccc1Cl | inconclusive: 16.4 µM [cytotoxic, partial curve] | –
29 | COc1ccc(/C=C/C(=O)Nc2ccc(Cl)cc2Cl)cc1 | inconclusive: 23.1 µM [cytotoxic, single point] | –
30 | CCN(CC)CCCNC(=O)C(=O)Nc1ccc2nc3n(c(=O)c2c1)CCCCC3 | – | inactive: 0.711%
31 | CCOC(=O)c1[nH]c(C)c(C(=O)OCc2ccccc2F)c1C | active: 4.61 µM | –
32 | O=C(Nc1cccc(Cl)c1)c1cc(S(=O)(=O)N2CCCc3ccccc32)ccc1F | – | inactive: -1.3%
33 | COc1ccc(C2c3c(ncn(CCN4CCOCC4)c3=N)Oc3ccc4ccccc4c32)cc1 (stereo unspecified) | inconclusive: 20.6 µM [cytotoxic, single point] | –
34 | Cc1cc(O)c(C(=O)/C=C/c2ccccc2Br)c(=O)o1 | inconclusive: 29.1 µM [cytotoxic, single point] | –
35 | CCOc1ccc(CN(C)C(=O)c2cc(S(=O)(=O)N3CCCC3)ccc2C)cc1 | inconclusive: 25.9 µM [cytotoxic, partial curve, poor fit] | –
36 | CCOc1ccc(Nc2cc(C)nc3ccc(C)cc23)cc1 | inconclusive: 29.1 µM [cytotoxic, single point] | –
37 | Fc1ccccc1N1CCN(c2ncnc3onc(-c4cccc(Cl)c4)c23)CC1 | inconclusive: 16.4 µM [cytotoxic, single point] | –
38 | COc1ccc(C(=O)NN)cc1COc1ccc(Br)cc1 | inconclusive: 23.1 µM [cytotoxic, single point] | –
39 | O=C(NN1CCOCC1)c1ccccc1NS(=O)(=O)c1ccc(F)cc1F | inconclusive: 3.26 µM [cytotoxic, partial curve, poor fit] | –
40 | CCN(CC)S(=O)(=O)c1ccc(N2CCOCC2)c(NC(=O)c2nn(C)c(=O)c3ccccc23)c1 | inconclusive: 0.326 µM [cytotoxic, full curve, poor fit] | –
41 | COc1ccc(Cn2c(C)nc3c(c2=O)c2nc4ccccc4nc2n3Cc2ccco2)cc1 | inconclusive: 29.1 µM [cytotoxic, single point] | –
42 | Cc1cc(Sc2ccc([N+](=O)[O-])cn2)ccc1Br | – | inactive: -9.38%
43 | O=C(Nc1cccc(Br)c1)c1ccc(CSc2ccccc2)cc1 | – | inactive: -19.3%
44 | COc1ccc(CN(C)C(=O)CNC(=O)c2sc3ccccc3c2Cl)c(OC)c1OC | inconclusive: 16.4 µM [cytotoxic, single point] | –

Rewritten in CSV form: part of the list above
Row,SMILES,Potency,"activity change, negative = cytotoxic"
8,COC(=O)c1[nH]c2ccc(C)cc2c1NC(=O)C(C)N1CCN(C2CCCCC2)CC1 (stereo unspecified),–,inactive: -1.1%
9,COc1ccc(Cl)cc1NC(=O)Cn1nnc(C(=O)NCc2cccs2)c1N,active: 7.31 µM,–
10,COc1ccc2c(CNCc3ccco3)c(C(=O)O)n(Cc3ccccc3)c2c1,"inconclusive: 23.1 µM [cytotoxic, single point]",–
11,COc1ccc(/C=C2/SC(=S)N(CCCC(=O)Nc3ccc(O)cc3)C2=O)cc1OC,"inconclusive: 20.6 µM [cytotoxic, single point]",–
12,Cc1c([N+](=O)[O-])cc(N2C(=O)C=CC2=O)cc1[N+](=O)[O-],–,inactive: 17.7%
13,COc1ccc(-c2cnc3c(NC(C)=O)cc(-c4ccccc4CN(C)C)cn23)cc1OC,–,inactive: -0.0965%
14,COc1cccc(C(C)(O)c2nc(-c3ccc(Cl)cc3)cs2)c1 (stereo unspecified),"inconclusive: 18.4 µM [cytotoxic, single point]",–
15,COc1ccc(/C=C2\CCC(C3CCCC3)C2=O)cc1 (stereo unspecified),–,inactive: 6.02%
16,CCC1CSC(Nc2ccc(C(=O)/C=C/c3cccc(C)c3)cc2)=N1 (stereo unspecified),"inconclusive: 20.6 µM [cytotoxic, single point]",–
17,C[C@@H]1CN([C@@H](C)CO)C(=O)CCCn2nncc2CO[C@H]1CN(C)S(=O)(=O)c1cn(C)cn1,"inconclusive: 25.9 µM [rising, single point]",–
18,Cc1ccc2cc(/C=N/Nc3nc4ccccc4[nH]3)c(Cl)nc2c1,"inconclusive: 20.6 µM [cytotoxic, partial curve]",–
19,CCOc1[nH]n(-c2ccc(Cl)cc2)c(=O)c1C=Nc1ccc(O)cc1,active: 18.4 µM,–
20,CC[C@@]12C(=O)N(c3cccc(F)c3)C(=O)N1[C@H](c1ccc(Cl)cc1)[C@@H]1C(=O)N(C3CCCCC3)C(=O)[C@@H]12,–,inactive: -21.8%
21,CCc1ccc(-n2c(=O)c3ccc(C(=O)NCCc4ccccc4)cc3n(Cc3ccccc3C#N)c2=O)cc1,–,inactive: 22.3%

(listing goes on)

Row | SMILES | Potency | activity change, negative = cytotoxic
45 | CCOc1cc(N2CCOCC2)c(OCC)cc1NC(=O)COC(=O)/C=C/c1ccc(OC(F)F)cc1 | – | inactive: 3.34%
46 | CCCCc1nc2ccccc2c(=O)n1NC(=O)c1c(O)c2cccc3c2n(c1=O)CC3 | inconclusive: 29.1 µM [cytotoxic, single point] | –
47 | Cc1cccc(Cl)c1NC(=O)N1CCCN(c2nc3ccc(Cl)cc3s2)CC1 | inconclusive: 7.31 µM [cytotoxic, partial curve] | –
48 | COc1cccc2cc(-c3nnc(SCC(=O)Nc4ccc(NC(C)=O)cc4)n3C)oc12 | inconclusive: 3.66 µM [rising, partial curve, poor fit] | –
49 | CCCCn1nc(C(=O)NCC(c2cccs2)N2CCOCC2)c2ccccc2c1=O (stereo unspecified) | inconclusive: 29.1 µM [cytotoxic, single point] | –
50 | Cc1cc(C)cc(-n2ncc3c2CCCC3NC(=O)c2ccccc2N2CCOCC2)c1 (stereo unspecified) | inconclusive: 29.1 µM [cytotoxic, single point] | –
51 | CN1CCN(C(=O)C2=C[C@H](c3ccccc3)C[C@H](OCc3ccc(CO)cc3)O2)CC1 | inconclusive: 13 µM [rising, partial curve, poor fit] | –
52 | Cc1ccc(C)c(N2CCN(S(=O)(=O)c3ccc4c(c3)CCCN4C(=O)C3CCC3)CC2)c1 | – | inconclusive: -31.6% [cytotoxic]
53 | COc1ccc2nc3sc(C(=O)N4CCN(c5ccc(F)cc5)CC4)cc3cc2c1 | – | inactive: 2.81%
54 | Cc1ccc(Cl)c(OCC(=O)NCC(c2cccs2)N2CCOCC2)c1 (stereo unspecified) | inconclusive: 20.6 µM [cytotoxic, partial curve] | –
55 | O=C(Nc1ccc2oc(-c3ccccc3)nc2c1)c1ccc2c(c1)OCCO2 | inconclusive: 23.1 µM [cytotoxic, partial curve] | –
56 | c1ccc(COc2cccc(-c3cc4nc(NCCc5ccncc5)ccn4n3)c2)cc1 | inconclusive: 29.1 µM [cytotoxic, single point] | –
57 | Fc1ccc(-n2cc(CNCCc3cccnc3)c(-c3ccccc3Cl)n2)cc1 | inconclusive: 29.1 µM [cytotoxic, single point] | –
58 | CC1(C)CC(Cc2cccc(C(F)(F)F)c2)N(C(=O)OC(C)(C)C)C1 (stereo unspecified) | inconclusive: 29.1 µM [rising, single point] | –
59 | CC(=O)c1ccc(OCC(=O)c2cc(C)n(-c3ccc4c(c3)OCO4)c2C)cc1 | inconclusive: 29.1 µM [cytotoxic, single point] | –
60 | Cc1cc(C)n(CC(O)COc2ccc(Cl)cc2Cl)n1 (stereo unspecified) | inconclusive: 23.1 µM [cytotoxic, single point] | –
61 | CN(C)c1ccc(CNC(=O)CN2C(=O)CCn3nc(-c4cn(C)c5ccccc45)cc32)cc1 | – | inactive: -18.8%
62 | CCC(C)NC(=O)CSc1nnc(-c2ccc(C)cc2)c(-c2ccc(C)cc2)n1 (stereo unspecified) | – | inactive: -14.3%
63 | CCC(=O)N1CCN=C1SCc1cccc(C(F)(F)F)c1 | – | inactive: 3.19%
64 | Cc1csc(NC(=O)C2CCN(S(=O)(=O)c3ccccc3F)CC2)n1 | – | inactive: 0%
65 | CCOc1ccccc1NC(=O)CSc1nnc(CCC(=O)Nc2ccccc2F)n1C | – | inactive: -5.43%
66 | COc1cc([C@@H]2c3cc4c(cc3[C@@H](O)[C@H]3COC(=O)[C@H]23)OCO4)cc(OC)c1O[Si](C)(C)C(C)(C)C | active: 5.8 µM | –
